This note sets out measurements from paper PMC4808006.

In assay [1] the target is Flag-tagged ΔPDZ2-Syntenin (human). The assay can be described thus: co-IP; transient transfection of tagged plasmids in H1299 cells; lysates immunoprecipitated with anti-Flag antibodies, Western blotting. In general terms: In western blotting, separated proteins are transferred to a membrane and probed.
Assay [2] concerns the target Syntenin-ΔPDZ1 (GST fusion protein) (human). The assay can be described thus: pull-down; purified GST-Syntenin fusion proteins incubated with in vitro translated HA-tagged Slug, pulled down by glutathione beads, immunoblotting; only the target purified.

Results are given in words; binding and its absence hold for the method and conditions named. Binding seen in cells or lysates may run through a third protein. For some assays here: Binding calls can cover weak binding; strength is not graded here. Sequences can lack the tags named with a protein.

B1: HA-Slug (protein, UniProt O43623 1-268)
chain: MPRSFLVKKHFNASKKPNYSELDTHTVIISPYLYESYSMPVIPQPEILSSGAYSPITVWTTAAPFHAQLPNGLSPLSGYSSSLGRVSPPPPSDTSSKDHSGSESPISDEEERLQSKLSDPHAIEAEKFQCNLCNKTYSTFSGLAKHKQLHCDAQSRKSFSCKYCDKEYVSLGALKMHIRTHTLPCVCKICGKAFSRPWLLQGHIRTHTGEKPFSCPHCNRAFADRSNLRAHLQTHSDVKKYQCKNCSKTFSRMSLLHKHEESGCCVAH
As for B1, the binding result in assay [1] is reported as “binds”.

B2: HA-tagged Slug, in vitro translated (protein, UniProt O43623 1-268)
chain: MPRSFLVKKHFNASKKPNYSELDTHTVIISPYLYESYSMPVIPQPEILSSGAYSPITVWTTAAPFHAQLPNGLSPLSGYSSSLGRVSPPPPSDTSSKDHSGSESPISDEEERLQSKLSDPHAIEAEKFQCNLCNKTYSTFSGLAKHKQLHCDAQSRKSFSCKYCDKEYVSLGALKMHIRTHTLPCVCKICGKAFSRPWLLQGHIRTHTGEKPFSCPHCNRAFADRSNLRAHLQTHSDVKKYQCKNCSKTFSRMSLLHKHEESGCCVAH
Consider B2, for which the binding entry in assay [2] was “no binding”.
